Measured values: the supplement of paper PMC5949888
Most values lie at the floor of the assay. Slopes are relative: functional sequences can read slightly below zero.

Each substance was assayed on Saccharomyces cerevisiae PS128 hsf1 delta, HSF1(1-493) fusion (assay: growth estimate (transactivation domain function in HSF1 fusion, heat-shock survival) (a.u. (slope of normalised read count over time)); higher = stronger growth at 37°C, i.e. more transactivation activity). Conditions: library: random library.

Substance | growth estimate
SFRSSRTYSLVVFGVNAGVA | < -0.25
AVKGNS | < -0.25
IYQ | < -0.25
RYSAPAGEFNWSCYQREGT | -0.243
MIRNVRLYRQLERY | < -0.25
VGGLD | < -0.25
DSAN | < -0.25
SGYCFCEVKNFDLGQNCKMG | < -0.25
QQRLTNFHGNSRSVSKPRRP | < -0.25
SRLVIAGEIAAFKVPSRVSS | < -0.25
ALTEDSRVTRV | < -0.25
AYRRWRVFGPVLCVLSVKLG | < -0.25
LNYRWFFSLRESTQMSLGHH | -0.243
RSETSPVRRILCTCQTDRKA | < -0.25
SGLMGHGCRATLGQMGAAQT | < -0.25
VGGSRTERAI | < -0.25
FRIFLV | < -0.25
PSAGCEISY | < -0.25
LRIC | < -0.25
RYHPEAPWMIGRTGTVRGAR | < -0.25
HGAWSLHTLSGLPR | < -0.25
TPLLRGLRKSARRECQ | < -0.25
DHAAVYWELR | < -0.25
SVTPRTRIHVGMGRLVPINA | < -0.25
VFYRFSKRGLVVSFYGHHLP | < -0.25
PWNGYVV | < -0.25

2 entries from above, reformatted.
Substance,growth estimate
LNYRWFFSLRESTQMSLGHH,-0.243
RSETSPVRRILCTCQTDRKA,< -0.25

Continued:

Substance | growth estimate
LMPREV | < -0.25
PRVAVHT | < -0.25
FEVAISTP | < -0.25
ING | < -0.25
LYKDFNVRAPCNKLQCKFRA | < -0.25
RNGEKEVHGPKGRAFLVTGP | < -0.25
VFALRCNQPF | < -0.25
CIAGGDNWLRRWQSARSVPI | < -0.25
NQC | < -0.25
VQGSLSAQPYGLCKSGDSPT | < -0.25
ALLFSQMFSSLTVSRTTRII | < -0.25
YEIVQFFH | < -0.25
AVHASNVPQLVSRVQVEFFP | < -0.25
RERSDYGVISHGSRNNADTP | < -0.25
VLRGLSRLAADLFNCRWLLG | < -0.25
QDEERPGD | < -0.25
PCKCC | < -0.25
ISRPHSTEVM | < -0.25
EEVADTTGFGCGPSDLFTRP | < -0.25
KGIPVSEKQGCGSADSGLSS | < -0.25
AFGEVVPYLAGYCCPPRCGR | < -0.25
KTPIDANRLNCALSSLCTT | < -0.25
KLWSRRQCRYFGPYVRFVSG | < -0.25
YWPVARMGSSYSVG | < -0.25
RSLSERPRVRFLPVLKNIRS | < -0.25
ANVPSGDRL | < -0.25

Substance | growth estimate
PISVHVLRGHGVTRELSGGC | < -0.25
AGW | < -0.25
RILRDIPGS | < -0.25
ASFHSE | 0.145
HCGMYRPIETDL | < -0.25
VFDLRPR | < -0.25
PATVSLRLNGARLILGIPVG | < -0.25
GHSLSCTKRA | < -0.25
CSPGYALIV | < -0.25
KRLLKATMPIFCSDRGGG | -0.246
PAQAHLFAATAHGTT | < -0.25
YEDNCYGHSRDILASSPERT | < -0.25
RVFVEHVYNLQGERT | < -0.25
YLAPSSVLDRCVPCCFTNIG | < -0.25
VMRAFSHGEYAREETAASSD | < -0.25
GAYIQGGSIHCLCSCIDGSG | < -0.25
LRIPLFQHRGWNCAWGPPPF | -0.243
GRPLTCRYWSCGSRFASKTR | < -0.25
IEGRTFTSAVVRSCRRLWPN | < -0.25
RYAEELLLGTAGAKACITRL | < -0.25
MGDGLLFPSKLINYDD | < -0.25
KDAPILRRSTLIQK | < -0.25
IRTSIGGSSRPLVKSGGWRT | < -0.25
KILVRSPRHCRYSGASGPSG | < -0.25
EGSSANASDERLEH | < -0.25
KDNKRVFGL | -0.23

Exported comma-delimited: part of the list above.
Substance,growth estimate
SVTPRTRIHVGMGRLVPINA,< -0.25
PWNGYVV,< -0.25
PRVAVHT,< -0.25
VFALRCNQPF,< -0.25
NQC,< -0.25
YEIVQFFH,< -0.25
RERSDYGVISHGSRNNADTP,< -0.25
PCKCC,< -0.25
EEVADTTGFGCGPSDLFTRP,< -0.25
KGIPVSEKQGCGSADSGLSS,< -0.25
AGW,< -0.25
RILRDIPGS,< -0.25
ASFHSE,0.145
HCGMYRPIETDL,< -0.25
VFDLRPR,< -0.25
VMRAFSHGEYAREETAASSD,< -0.25
GAYIQGGSIHCLCSCIDGSG,< -0.25
LRIPLFQHRGWNCAWGPPPF,-0.243
IEGRTFTSAVVRSCRRLWPN,< -0.25
RYAEELLLGTAGAKACITRL,< -0.25
EGSSANASDERLEH,< -0.25

Remaining list, next part:

Substance | growth estimate
SSSIPGHRMWAELWLWNYEE | < -0.25
PYR | < -0.25
QSAAGGRSWW | < -0.25
VIALR | < -0.25
GWYQSCVITGDTGACVTLLR | < -0.25
VWGSRVSQITACWC | < -0.25
QIRAFRQIMQPFPIAGRLVI | < -0.25
LACFSFHSGFREPQGVSVRH | < -0.25
HYLCSLTRSCH | < -0.25
PSCLPDSTPMARSYL | < -0.25
HGTIFHMSAGFWALVDQPMV | < -0.25
KHGPKVKSSAPARFDTVGLL | < -0.25
PLPVCCQHYGDGSYRDGC | < -0.25
RTPRLTFARKVRCKSVSPAL | < -0.25
QGAATV | < -0.25
VGNQCDPKRGGSRTGVA | < -0.25
LSECNGSWSGK | < -0.25
TIEARFQLFCSREDRKRVFP | < -0.25
ERH | < -0.25
DRNGVEFWATVEERHRIACR | < -0.25
EPYVTYCVSMSLCFWACRDM | < -0.25
YPPAEEE | < -0.25
ASVS | < -0.25
